Publication PMC12145851

Sequences of proteins named here, by UniProt entry; tags and fusion partners are left off.
UniProt O55143: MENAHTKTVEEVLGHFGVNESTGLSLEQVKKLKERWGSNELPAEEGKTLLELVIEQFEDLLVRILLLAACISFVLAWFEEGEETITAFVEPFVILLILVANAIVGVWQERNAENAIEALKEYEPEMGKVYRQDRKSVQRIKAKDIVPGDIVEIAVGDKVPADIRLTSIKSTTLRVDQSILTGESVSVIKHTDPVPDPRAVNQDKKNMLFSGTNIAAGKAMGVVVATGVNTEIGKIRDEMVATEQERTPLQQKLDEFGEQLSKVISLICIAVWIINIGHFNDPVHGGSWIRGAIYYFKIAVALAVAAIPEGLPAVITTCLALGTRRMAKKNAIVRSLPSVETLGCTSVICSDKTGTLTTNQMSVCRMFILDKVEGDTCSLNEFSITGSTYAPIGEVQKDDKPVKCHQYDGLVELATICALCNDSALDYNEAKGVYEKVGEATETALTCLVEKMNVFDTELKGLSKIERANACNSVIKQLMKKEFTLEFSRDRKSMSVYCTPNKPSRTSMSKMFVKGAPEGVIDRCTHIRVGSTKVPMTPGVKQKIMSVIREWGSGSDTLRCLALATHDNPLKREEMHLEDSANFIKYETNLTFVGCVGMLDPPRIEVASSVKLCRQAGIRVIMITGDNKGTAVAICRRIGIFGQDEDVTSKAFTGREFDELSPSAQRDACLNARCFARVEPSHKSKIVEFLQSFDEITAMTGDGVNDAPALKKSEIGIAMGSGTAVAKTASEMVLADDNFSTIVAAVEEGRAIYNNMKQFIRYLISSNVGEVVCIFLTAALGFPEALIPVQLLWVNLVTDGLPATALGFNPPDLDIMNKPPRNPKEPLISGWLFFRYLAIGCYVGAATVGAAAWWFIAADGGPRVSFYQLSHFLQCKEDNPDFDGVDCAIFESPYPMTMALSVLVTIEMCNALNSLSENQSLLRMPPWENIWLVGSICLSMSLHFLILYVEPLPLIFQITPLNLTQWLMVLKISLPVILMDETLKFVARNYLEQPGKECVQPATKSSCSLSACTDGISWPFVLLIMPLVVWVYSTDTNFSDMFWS

Experiments:
[1] = biological target: T1, phospholamban (PLN) (mouse (endogenous in mouse heart)) (UniProt P61014); assay: affinity purification with mass spectrometry; IP-MS: unfixed, snap-frozen mouse hearts, RIPA lysate; 1 mg soluble protein with 2 μg PLN antibody overnight at 4 °C, protein A/G beads, on-bead trypsin digestion, DIA MS; mock IP without primary antibody as control
T1 sequence: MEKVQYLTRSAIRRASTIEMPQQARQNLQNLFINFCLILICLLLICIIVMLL

[2] = biological target: T1, phospholamban (PLN) (mouse (endogenous in mouse heart)); assay: affinity purification with mass spectrometry; xIP-MS: mouse hearts fixed (cross-linked) overnight in 3 % glyoxal, RIPA lysate; 1 mg soluble protein with 2 μg PLN antibody overnight at 4 °C, protein A/G beads, on-bead trypsin digestion, DIA MS; mock IP without primary antibody as control

Row | Substance | binding [1] | binding [2]
1 | calmodulin-dependent protein kinase II (CaMKII) (mouse (endogenous in mouse heart)) (enzyme) | no binding | no binding
2 | sarco(endo)plasmic reticulum Ca2+ ATPase (SERCA2) (from UniProt O55143 1-1044) | binds | binds

Results are given in words; binding and its absence hold for the method and conditions named. Binding seen in cells or lysates may run through a third protein. A yes stands for co-enrichment or nearness to the bait. Other partners may have been found. A no says only that the protein was not detected with the bait.
